Results on two molecules are retold here after article PMC10176748.

Protein sequences, listed by entry. Tags and fused reporters are not part of them. Residues count along the entry.
UniProt Q64339, residues 1-155: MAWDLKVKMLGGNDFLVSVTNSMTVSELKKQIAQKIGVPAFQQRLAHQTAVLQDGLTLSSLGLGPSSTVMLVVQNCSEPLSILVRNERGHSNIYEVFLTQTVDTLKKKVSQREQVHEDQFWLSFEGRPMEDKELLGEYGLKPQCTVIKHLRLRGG
UniProt E9Q555: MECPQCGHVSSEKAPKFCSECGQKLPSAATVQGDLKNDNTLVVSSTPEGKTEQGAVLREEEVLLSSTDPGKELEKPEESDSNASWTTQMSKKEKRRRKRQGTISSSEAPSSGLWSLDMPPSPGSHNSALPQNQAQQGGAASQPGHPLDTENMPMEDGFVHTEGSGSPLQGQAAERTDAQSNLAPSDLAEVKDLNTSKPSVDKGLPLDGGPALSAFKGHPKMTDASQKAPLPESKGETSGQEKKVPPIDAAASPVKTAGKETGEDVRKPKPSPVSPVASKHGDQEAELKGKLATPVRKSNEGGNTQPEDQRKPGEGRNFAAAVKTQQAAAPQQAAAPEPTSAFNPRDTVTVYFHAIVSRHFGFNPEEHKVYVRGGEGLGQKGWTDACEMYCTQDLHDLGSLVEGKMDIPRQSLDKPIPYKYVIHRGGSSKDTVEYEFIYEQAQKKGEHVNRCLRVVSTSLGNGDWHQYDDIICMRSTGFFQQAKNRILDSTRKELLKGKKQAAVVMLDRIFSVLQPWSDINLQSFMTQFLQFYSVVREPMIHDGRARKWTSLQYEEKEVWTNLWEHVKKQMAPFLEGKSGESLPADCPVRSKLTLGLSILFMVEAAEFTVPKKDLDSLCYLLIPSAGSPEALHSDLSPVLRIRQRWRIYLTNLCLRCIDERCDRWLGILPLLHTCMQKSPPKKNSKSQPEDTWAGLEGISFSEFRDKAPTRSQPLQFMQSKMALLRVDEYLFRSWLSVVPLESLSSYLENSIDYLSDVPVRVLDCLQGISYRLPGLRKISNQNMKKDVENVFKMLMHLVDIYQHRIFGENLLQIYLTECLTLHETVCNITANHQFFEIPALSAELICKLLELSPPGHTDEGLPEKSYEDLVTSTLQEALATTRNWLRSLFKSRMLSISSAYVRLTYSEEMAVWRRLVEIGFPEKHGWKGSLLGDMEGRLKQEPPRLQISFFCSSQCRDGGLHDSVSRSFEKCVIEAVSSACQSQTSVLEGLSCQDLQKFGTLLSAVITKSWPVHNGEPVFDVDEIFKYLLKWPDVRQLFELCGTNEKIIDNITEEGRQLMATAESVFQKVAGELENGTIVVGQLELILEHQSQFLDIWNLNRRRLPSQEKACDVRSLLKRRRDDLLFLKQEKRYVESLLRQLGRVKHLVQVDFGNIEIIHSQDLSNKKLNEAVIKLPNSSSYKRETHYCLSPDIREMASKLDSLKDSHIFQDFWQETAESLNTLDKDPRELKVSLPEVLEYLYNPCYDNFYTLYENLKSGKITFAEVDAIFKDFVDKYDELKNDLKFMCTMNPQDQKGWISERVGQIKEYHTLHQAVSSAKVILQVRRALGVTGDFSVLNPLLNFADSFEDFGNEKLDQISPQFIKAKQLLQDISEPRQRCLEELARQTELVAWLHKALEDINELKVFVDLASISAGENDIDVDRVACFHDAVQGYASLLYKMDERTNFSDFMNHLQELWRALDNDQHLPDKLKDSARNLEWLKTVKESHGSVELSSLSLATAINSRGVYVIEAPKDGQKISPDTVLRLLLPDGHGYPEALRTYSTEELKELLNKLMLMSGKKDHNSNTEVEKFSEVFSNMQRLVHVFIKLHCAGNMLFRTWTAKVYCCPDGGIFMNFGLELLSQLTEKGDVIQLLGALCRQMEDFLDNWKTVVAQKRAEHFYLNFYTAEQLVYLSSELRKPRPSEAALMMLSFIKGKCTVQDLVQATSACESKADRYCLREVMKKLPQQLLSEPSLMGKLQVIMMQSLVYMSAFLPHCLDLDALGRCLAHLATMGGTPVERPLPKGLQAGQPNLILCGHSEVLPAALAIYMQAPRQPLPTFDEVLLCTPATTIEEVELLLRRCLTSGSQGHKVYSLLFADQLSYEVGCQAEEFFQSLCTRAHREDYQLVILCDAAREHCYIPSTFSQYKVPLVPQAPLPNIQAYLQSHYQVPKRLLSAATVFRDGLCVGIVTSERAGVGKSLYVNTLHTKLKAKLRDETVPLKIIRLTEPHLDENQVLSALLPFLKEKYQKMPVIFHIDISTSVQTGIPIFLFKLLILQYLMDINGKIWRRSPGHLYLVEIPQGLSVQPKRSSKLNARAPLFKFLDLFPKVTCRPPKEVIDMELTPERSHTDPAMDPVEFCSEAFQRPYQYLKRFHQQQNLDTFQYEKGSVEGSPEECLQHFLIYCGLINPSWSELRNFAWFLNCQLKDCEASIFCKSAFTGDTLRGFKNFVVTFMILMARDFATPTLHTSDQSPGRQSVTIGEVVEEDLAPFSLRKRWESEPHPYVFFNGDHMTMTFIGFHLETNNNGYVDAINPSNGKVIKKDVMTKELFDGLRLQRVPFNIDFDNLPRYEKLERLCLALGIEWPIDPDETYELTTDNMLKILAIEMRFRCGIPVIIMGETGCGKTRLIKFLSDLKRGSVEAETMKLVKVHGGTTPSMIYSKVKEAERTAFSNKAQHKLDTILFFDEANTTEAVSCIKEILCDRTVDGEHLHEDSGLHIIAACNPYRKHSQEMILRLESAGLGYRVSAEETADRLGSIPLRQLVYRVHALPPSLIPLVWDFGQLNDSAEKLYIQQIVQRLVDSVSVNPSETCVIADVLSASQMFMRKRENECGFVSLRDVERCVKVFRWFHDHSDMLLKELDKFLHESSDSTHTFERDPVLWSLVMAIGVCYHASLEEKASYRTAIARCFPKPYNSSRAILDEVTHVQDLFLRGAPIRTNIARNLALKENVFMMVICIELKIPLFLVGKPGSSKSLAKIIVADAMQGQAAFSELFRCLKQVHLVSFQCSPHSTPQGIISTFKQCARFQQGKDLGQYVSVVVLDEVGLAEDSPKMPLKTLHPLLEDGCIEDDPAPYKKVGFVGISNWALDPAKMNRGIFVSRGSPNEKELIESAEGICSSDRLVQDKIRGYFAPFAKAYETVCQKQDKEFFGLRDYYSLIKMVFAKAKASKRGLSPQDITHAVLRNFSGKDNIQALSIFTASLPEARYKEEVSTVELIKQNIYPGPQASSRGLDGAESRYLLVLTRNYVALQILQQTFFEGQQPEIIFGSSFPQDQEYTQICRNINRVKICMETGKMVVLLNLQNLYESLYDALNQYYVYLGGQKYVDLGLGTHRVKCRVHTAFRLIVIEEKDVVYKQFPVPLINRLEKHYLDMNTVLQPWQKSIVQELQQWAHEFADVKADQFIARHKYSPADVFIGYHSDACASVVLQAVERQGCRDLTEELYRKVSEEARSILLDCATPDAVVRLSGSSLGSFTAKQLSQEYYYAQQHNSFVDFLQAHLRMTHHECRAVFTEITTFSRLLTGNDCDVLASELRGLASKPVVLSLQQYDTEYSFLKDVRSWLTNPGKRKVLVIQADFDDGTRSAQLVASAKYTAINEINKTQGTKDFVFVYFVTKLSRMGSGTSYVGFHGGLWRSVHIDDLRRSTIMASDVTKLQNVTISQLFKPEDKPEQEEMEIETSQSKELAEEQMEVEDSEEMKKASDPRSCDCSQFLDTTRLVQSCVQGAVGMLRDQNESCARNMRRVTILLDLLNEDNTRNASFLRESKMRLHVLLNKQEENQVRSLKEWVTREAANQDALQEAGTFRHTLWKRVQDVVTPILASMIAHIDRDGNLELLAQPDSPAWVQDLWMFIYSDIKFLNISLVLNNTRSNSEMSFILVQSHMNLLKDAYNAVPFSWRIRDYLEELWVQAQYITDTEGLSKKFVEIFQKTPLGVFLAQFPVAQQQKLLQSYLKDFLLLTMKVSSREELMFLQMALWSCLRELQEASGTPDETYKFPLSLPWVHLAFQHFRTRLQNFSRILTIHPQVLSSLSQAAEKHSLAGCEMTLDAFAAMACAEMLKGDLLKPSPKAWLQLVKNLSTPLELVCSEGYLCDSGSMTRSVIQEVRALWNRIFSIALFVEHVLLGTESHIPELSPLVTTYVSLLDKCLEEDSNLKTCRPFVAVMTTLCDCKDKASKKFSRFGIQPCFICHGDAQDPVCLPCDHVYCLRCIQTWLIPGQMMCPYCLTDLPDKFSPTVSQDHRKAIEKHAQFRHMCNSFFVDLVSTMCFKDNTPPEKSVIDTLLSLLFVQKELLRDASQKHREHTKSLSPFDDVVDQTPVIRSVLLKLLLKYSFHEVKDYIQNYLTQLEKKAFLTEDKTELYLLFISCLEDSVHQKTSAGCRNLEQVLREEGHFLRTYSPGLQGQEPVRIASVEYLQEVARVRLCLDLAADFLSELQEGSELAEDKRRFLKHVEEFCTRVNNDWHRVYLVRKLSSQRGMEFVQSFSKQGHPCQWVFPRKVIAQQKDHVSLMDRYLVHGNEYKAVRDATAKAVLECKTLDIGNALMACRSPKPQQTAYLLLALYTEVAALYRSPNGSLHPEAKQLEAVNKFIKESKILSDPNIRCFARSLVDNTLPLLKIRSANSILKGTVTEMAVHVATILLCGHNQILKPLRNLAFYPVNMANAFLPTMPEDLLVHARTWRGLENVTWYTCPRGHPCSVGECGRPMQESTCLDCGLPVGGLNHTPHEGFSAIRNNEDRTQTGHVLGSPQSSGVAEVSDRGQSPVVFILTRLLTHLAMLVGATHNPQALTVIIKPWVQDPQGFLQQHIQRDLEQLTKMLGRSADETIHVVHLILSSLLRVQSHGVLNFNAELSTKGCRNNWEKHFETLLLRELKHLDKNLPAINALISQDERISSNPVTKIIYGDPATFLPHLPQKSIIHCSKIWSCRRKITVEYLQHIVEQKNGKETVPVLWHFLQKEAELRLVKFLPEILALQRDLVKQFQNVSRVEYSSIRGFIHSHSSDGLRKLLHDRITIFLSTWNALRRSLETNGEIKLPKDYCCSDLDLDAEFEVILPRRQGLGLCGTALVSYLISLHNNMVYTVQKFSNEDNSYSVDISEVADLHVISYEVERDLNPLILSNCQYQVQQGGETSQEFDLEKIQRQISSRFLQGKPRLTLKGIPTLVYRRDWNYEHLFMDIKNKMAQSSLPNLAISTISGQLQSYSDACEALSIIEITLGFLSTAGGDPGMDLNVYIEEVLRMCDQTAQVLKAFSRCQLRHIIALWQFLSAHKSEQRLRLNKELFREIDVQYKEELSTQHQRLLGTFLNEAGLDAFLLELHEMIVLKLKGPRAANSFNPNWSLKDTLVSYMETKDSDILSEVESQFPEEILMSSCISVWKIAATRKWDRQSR

Results are given in words; binding and its absence hold for the method and conditions named. Binding seen in cells or lysates may run through a third protein. A yes stands for co-enrichment or nearness to the bait. Other partners may have been found.

The target of the assay is FLAG-ISG15 (interferon-stimulated gene 15) (mouse) (UniProt Q64339). The assay can be described thus: affinity purification with mass spectrometry; FLAG-ISG15 immunoprecipitated from lysate of transfected mGCs with anti-FLAG magnetic beads overnight at 4 °C, washed with PBST; immunoprecipitates identified by mass spectrometry.

On to “ring finger protein 213 (RNF213) (from UniProt E9Q555 1-5148)”, for which the binding result is listed as “binds”.

B1: protease serine 23 (PRSS23) (protein, UniProt Q9D6X6 23-382)
chain: YTVPWKPTWPAYRLPVVLPQSTLNLAKADFDAKAKLEVSSSCGPQCHKGTPLPTYEEAKQYLSYETLYANGSRTETRVGIYILSNGEGRARGRDSEATGRSRRKRQIYGYDGRFSIFGKDFLLNYPFSTSVKLSTGCTGTLVAEKHVLTAAHCIHDGKTYVKGTQKLRVGFLKPKYKDGAGGDNSSSSAMPDKMKFQWIRVKRTHVPKGWIKGNANDIGMDYDYALLELKKPHKRQFMKIGVSPPAKQLPGGRIHFSGYDNDRPGNLVYRFCDVKDETYDLLYQQCDAQPGASGSGVYVRMWKRPQQKWERKIIGIFSGHQWVDMNGSPQDFNVAVRITPLKYAQICYWIKGNYLDCREG
For B1, the binding result was “binds”.
